Data as given in PubChem BioAssay AID1671195 (Yale University, 2021)

Aim: 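Regulators of LDL receptor activity judged by labelled LDL uptake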 (primary screen)
Cells: human Huh7 hepatoma cells
Reagent: siRNA pool against human genes, 18 nM
Timing: about 2 to 2.5 days of knockdown, then 8 h LDL uptake
Treatment: DiI-labelled LDL at 30 µg/ml for 8 h, in lipoprotein-deficient serum medium
Read-out: 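Per-cell DiI-LDL intensity by automated imaging; well means scaled to the plate median and given as a robust z-score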
Reading the numbers: robust z-score: higher = more LDL uptake after knockdown
Rule for the call: 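a gene counts as active if at least two replicate z-scores exceed ±2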
The deposit covers about 22,000 reagents; shown is a random part of them. In the full data, about 1,510 (6.9%) are marked active. 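Active includes knockdowns raising or lowering LDL uptake; positive z-scores mean more uptake, negative mean less.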

FBXO31 [SID442893335] — robust z-score, replicate 1 = 0.196; robust z-score, replicate 2 = -0.0187; robust z-score, replicate 3 = 0.00922; activity call = inactive
MANBAL [SID442888786] — robust z-score, replicate 1 = 0.502; robust z-score, replicate 2 = 0.798; robust z-score, replicate 3 = 0.685; activity call = inactive
HACD3 [SID442903352] — robust z-score, replicate 1 = -0.891; robust z-score, replicate 2 = -1.68; robust z-score, replicate 3 = -1.27; activity call = inactive
RRAS2 [SID442889546] — robust z-score, replicate 1 = 1.3; robust z-score, replicate 2 = 0.273; robust z-score, replicate 3 = 0.0565; activity call = inactive
SKIC2 [SID442897980] — robust z-score, replicate 1 = -0.191; robust z-score, replicate 2 = -0.532; robust z-score, replicate 3 = -0.617; activity call = inactive
TPPP3 [SID442899106] — robust z-score, replicate 1 = 0.312; robust z-score, replicate 2 = -0.286; robust z-score, replicate 3 = -1.76; activity call = inactive
DRC9 [SID442897344] — robust z-score, replicate 1 = -0.597; robust z-score, replicate 2 = -0.408; robust z-score, replicate 3 = -0.122; activity call = inactive
SPG7 [SID442898872] — robust z-score, replicate 1 = -0.55; robust z-score, replicate 2 = -0.73; robust z-score, replicate 3 = -0.365; activity call = inactive
ACSL6 [SID442902810] — robust z-score, replicate 1 = -1.28; robust z-score, replicate 2 = -0.856; robust z-score, replicate 3 = -1.32; activity call = inactive
MFRP [SID442893315] — robust z-score, replicate 1 = -0.271; robust z-score, replicate 2 = -0.308; robust z-score, replicate 3 = 0.77; activity call = inactive
LINC00316 [SID442896362] — robust z-score, replicate 1 = -0.642; robust z-score, replicate 2 = -0.215; robust z-score, replicate 3 = 0.0636; activity call = inactive
IKZF5 [SID442900794] — robust z-score, replicate 1 = -0.787; robust z-score, replicate 2 = -1.39; robust z-score, replicate 3 = -0.245; activity call = inactive
POLR3A [SID442892567] — robust z-score, replicate 1 = -0.499; robust z-score, replicate 2 = 0.297; robust z-score, replicate 3 = 0.654; activity call = inactive
SLC67A1 [SID442898171] — robust z-score, replicate 1 = -0.827; robust z-score, replicate 2 = -0.302; robust z-score, replicate 3 = -0.278; activity call = inactive
ZBTB26 [SID442889821] — robust z-score, replicate 1 = 0.858; robust z-score, replicate 2 = 0.26; robust z-score, replicate 3 = 0.395; activity call = inactive
OR2G6 [SID442904678] — robust z-score, replicate 1 = -1.79; robust z-score, replicate 2 = -1.71; robust z-score, replicate 3 = -1.91; activity call = inactive
TRAP1 [SID442884050] — robust z-score, replicate 1 = 1.94; robust z-score, replicate 2 = 1.88; robust z-score, replicate 3 = 2.26; activity call = active
PALB2 [SID442892390] — robust z-score, replicate 1 = -0.179; robust z-score, replicate 2 = 0.177; robust z-score, replicate 3 = 0.524; activity call = inactive
TSFM [SID442902729] — robust z-score, replicate 1 = -0.431; robust z-score, replicate 2 = -1.55; robust z-score, replicate 3 = -1.43; activity call = inactive
ZDHHC13 [SID442897278] — robust z-score, replicate 1 = -0.384; robust z-score, replicate 2 = -0.949; robust z-score, replicate 3 = 0.23; activity call = inactive
APCDD1L [SID442883599] — robust z-score, replicate 1 = 2.73; robust z-score, replicate 2 = 2.9; robust z-score, replicate 3 = 2.17; activity call = active
OR6F1 [SID442884854] — robust z-score, replicate 1 = 1.91; robust z-score, replicate 2 = 1.85; robust z-score, replicate 3 = 1.74; activity call = inactive
PRKY [SID442884442] — robust z-score, replicate 1 = -2.43; robust z-score, replicate 2 = -1.79; robust z-score, replicate 3 = -2.18; activity call = active
MED13 [SID442889045] — robust z-score, replicate 1 = -0.0575; robust z-score, replicate 2 = 2.03; robust z-score, replicate 3 = -0.108; activity call = inactive

Active calls, of those listed so far:
TRAP1 [SID442884050] — robust z-score, replicate 1 = 1.94; robust z-score, replicate 2 = 1.88; robust z-score, replicate 3 = 2.26; activity call = active
APCDD1L [SID442883599] — robust z-score, replicate 1 = 2.73; robust z-score, replicate 2 = 2.9; robust z-score, replicate 3 = 2.17; activity call = active
PRKY [SID442884442] — robust z-score, replicate 1 = -2.43; robust z-score, replicate 2 = -1.79; robust z-score, replicate 3 = -2.18; activity call = active
